# Data taken from the supplement of paper PMC3334620.
# Whole data set: some 33,000 sequences, median “E-score (-0.5 to 0.5)” near -0.0034, cut for the highest 2% near 0.25. The list shows a part of the results.
# Target: T1, Yap3 (UniProt P38749)
# T1 sequence: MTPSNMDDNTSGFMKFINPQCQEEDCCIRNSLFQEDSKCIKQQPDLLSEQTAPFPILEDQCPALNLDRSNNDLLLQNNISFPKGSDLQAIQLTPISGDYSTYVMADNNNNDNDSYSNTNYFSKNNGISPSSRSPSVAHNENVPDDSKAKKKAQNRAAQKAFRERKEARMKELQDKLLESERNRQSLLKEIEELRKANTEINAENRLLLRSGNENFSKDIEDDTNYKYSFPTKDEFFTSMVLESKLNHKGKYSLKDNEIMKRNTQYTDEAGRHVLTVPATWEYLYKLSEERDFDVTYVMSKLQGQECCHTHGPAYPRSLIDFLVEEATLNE
# Assay: PBM E-score (8-mer binding enrichment) (E-score (-0.5 to 0.5)); higher = stronger / more preferred TF binding
# Conditions: protein concentration: 100 nM; construct: GST-full length
# Experimental: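 Universal 'all 10-mer' protein binding microarrays (Agilent AMADID 015681) probed with GST-tagged S. cerevisiae TFs (full-length or DBD) made by in vitro transcription/translation (PURExpress), about 100-200 nM. Bound TF was detected with fluorescent anti-GST. Each ungapped 8-mer (which stands for itself and its reverse complement) is scored by the PBM enrichment score (E-score), a modified Wilcoxon-Mann-Whitney statistic from -0.5 to +0.5, computed with the Universal PBM Analysis Suite. Scale: above 0.35 generally sequence-specific binding.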
row,Sequence,PBM E-score
1,CTTTATTC,0.107
2,GTTTATAA,0.224
3,CGAGTCTC,-0.136
4,CGACCTAA,0.101
5,ATAACTAC,0.177
6,AGAAGAGG,-0.252
7,CACCCCTC,-0.256
8,CAAGATTG,0.0575
9,CCTGCAGG,-0.062
10,CATAGTCA,0.0745
11,ACCCGTGC,-0.177
12,ATGCCTGG,-0.143
13,CCCATACA,-0.115
14,ACCTAAAC,0.122
15,ACAGCGGG,0.0111
16,ATTGCAGC,-0.0301
17,GCTACGTA,0.0655
18,ACTTGCAT,0.117
19,AGATCGCC,-0.0232
20,CATAGGAC,-0.142
21,CAGAACGA,0.201
22,GTTCTACA,-0.11
23,CGGCTGCA,-0.303
24,ATCCTAGC,0.119
25,AGAAACCA,0.195

row,Sequence,PBM E-score
1,GGGGAAAA,0.0988
2,ATGGATAC,0.0687
3,AAACAAAG,0.185
4,GTCGCCAC,-0.132
5,AAGTAAAC,0.0216
6,GTACCGAC,-0.125
7,AGAACTCT,-0.145
8,CGATAGTC,0.0363
9,CGTGGCAA,-0.138
10,TCATTTAA,0.158
11,CCACACCA,0.154
12,AGGCACCG,-0.276
13,GAGAGGCA,-0.103
14,TCTGGTAA,0.138
15,CTGTTTAA,0.0842
16,ATACCGGC,-0.0328
17,CACATCTG,-0.146
18,CCTTCGTA,-0.0891
19,CTTTCGGC,-0.183
20,TAAGCTAA,0.11
21,AGTACGGG,-0.0367
22,AATCGCAA,0.152
23,GGATTGGA,0.19
24,CGACTTAC,-0.0169
25,AAGGGCAG,-0.0487

row,Sequence,PBM E-score
1,ACAGTAAA,0.169
2,GGCAATTA,0.0084
3,GAGTGACC,-0.154
4,CCGTTGAA,-0.115
5,CAGAATCC,-0.0575
6,ATCGGCTA,0.0758
7,TATAACGA,0.184
8,CCCACCTA,-0.0899
9,ACGAGTGC,-0.0843
10,ACTAAACC,-0.00203
11,CGCCACCA,-0.25
12,ATGGTTAC,0.122
13,GCGTAACC,-0.00083
14,CATATAGC,0.233
15,AGACGCGC,-0.00085
16,CCAGGCGG,-0.172
17,CGACCCGA,-0.139
18,AAGAATGT,0.0437
19,GGGTGGCA,-0.162
20,GGTCCCAC,-0.182
21,AGGTCGAA,-0.0156
22,CATACACG,0.0356
23,CTGCAGGA,0.114
24,TCCGAGAA,0.113
25,GAATGACA,0.133

# Random excerpt: two records from the list, in no set order.
row,Sequence,PBM E-score
12,ATGCCTGG,-0.143
13,GAGAGGCA,-0.103

# As a short view, some entries already given:
row,Sequence,PBM E-score
9,ACGAGTGC,-0.0843
10,ACTAAACC,-0.00203
11,CGCCACCA,-0.25
12,ATGGTTAC,0.122
13,GCGTAACC,-0.00083

# (list continues)

row,Sequence,PBM E-score
1,AATAGCGT,0.195
2,AGGCGGTA,-0.234
3,CGAGCTCA,0.106
4,CAGGTAAG,0.113
5,GTAAGCGA,0.195
6,CCATAAAC,0.00629
7,CACGGGGA,-0.257
8,ATTACAAG,0.166
9,GCTAATAC,0.176
10,CTCTTCCA,-0.0498
11,ACATTATA,0.148
12,CCGTATCA,0.0654
13,TTGATAAA,0.231
14,ATAACGGG,-0.0624
15,GACAAGTC,-0.154
16,ATGAATCA,0.14
17,ATGGGGTG,-0.107
18,GGTTACGA,0.06
19,CTAATCAA,0.219
20,CGTCTAAC,-0.178
21,AGGACGCC,-0.135
22,ATTAAGGC,0.0716
23,CACTTTAC,0.141
24,CAGCGAAA,-0.0644
25,CCCTTTCA,-0.228

row,Sequence,PBM E-score
1,GTGGCCTA,-0.0783
2,CAAACCAA,0.149
3,ATATAGCA,0.16
4,GCTACACC,-0.173
5,ACACGCGG,0.0915
6,GCCTGGAA,0.0533
7,ACATGTAG,0.302
8,AGGTGGTC,-0.0882
9,ATATGCAC,0.153
10,GTTACCCA,-0.0733
11,GATCGGAC,0.0646
12,AAGATTAC,0.0324
13,GCGATAGA,0.0791
14,ACCTGAGG,-0.256
15,ATCGTTGG,0.0333
16,AAGTATCA,0.052
17,ATGATGCA,0.105
18,ATTGCATA,0.148
19,AGCTAACC,-0.181
20,ACTGATAT,-0.07
21,AAGCATGG,-0.143
22,ACACAAAT,0.162
23,CCGCAGAG,-0.227
24,AACACGAG,0.147
25,AAACTGCC,0.0129

row,Sequence,PBM E-score
1,AGTACAAA,0.0988
2,CGGCGATA,0.00508
3,CGTTCAGA,-0.11
4,CAACACTG,0.00462
5,CGCTACCC,-0.214
6,CGATAACA,0.097
7,CTTAATGA,0.14
8,CCGACTAG,-0.0945
9,AAATTTAT,0.144
10,AGCGGCAT,0.126
11,GACGATAA,0.151
12,AGTATCAC,0.0393
13,GATCTTCC,-0.134
14,AATCACGG,0.211
15,GCATTTCC,0.153
16,GTCCAGGA,-0.0965
17,TTCACCAA,0.108
18,AGAAGCCA,0.044
19,ATGAGGAG,-0.0578
20,CCCGTCAC,-0.0882
21,ATCGATGC,0.133
22,ACTTAATA,0.154
23,AGCCGTGC,-0.233
24,CAAAGCTA,0.0774
25,ACGCCAAA,-0.00737

# A different layout for some results above:
row	Sequence	PBM E-score
18	ACTTGCAT	0.117
9	ACGAGTGC	-0.0843
3	CGTTCAGA	-0.11

# (next part)

row,Sequence,PBM E-score
1,CCGCGAAA,-5e-05
2,GGATTGAC,0.0323
3,AACACTAC,0.132
4,CGGCACAG,-0.11
5,GAGATTTA,-0.116
6,GTCGTACA,0.174
7,CCACACGG,-0.162
8,ATGCGGAA,0.0117
9,CACTATGC,0.068
10,AGAATCGC,-0.0138
11,ATCTCCAC,-0.00177
12,AATAAAAT,0.239
13,GCCTGGCA,-0.289
14,GGTGTAGA,0.0432
15,AGCACCGG,-0.177
16,AGCATCCT,0.0013
17,AGACATCT,-0.0925
18,GATTCCCA,-0.077
19,AAGCGTTC,-0.0829
20,CGAATTCC,0.183
21,AGTCCCAC,-0.141
22,AAAGCTTA,0.0874
23,ACAACCAA,0.11
24,GAGCATAC,0.118
25,GCAACAAC,-0.0413

row,Sequence,PBM E-score
1,CGAAATAA,0.211
2,TCACTTCA,0.0508
3,ATGCAATA,0.112
4,AAGAGGAA,0.0858
5,AGGTTTGA,-0.014
6,ACATATTA,0.305
7,CTGGTAAG,-0.0397
8,TCAGCGCA,-0.216
9,GGCGGTAC,-0.209
10,GATGCGCA,-0.0114
11,ATGTGTGG,0.0791
12,AAACTAAC,0.232
13,AAGACACC,-0.0353
14,ATTAGTCC,0.207
15,GGAGCGTA,0.0758
16,ACAAATAT,0.274
17,AGACAACA,0.0437
18,TCTCTCAA,0.153
19,ACTCGTTA,-0.115
20,CGTTTCAC,0.0177
21,ACACGAAC,-0.0288
22,CACTAACA,0.162
23,ATCGTCAT,0.248
24,CGGGGCAA,-0.0912
25,ACGACTGG,-0.144

row,Sequence,PBM E-score
1,CCTGCCTC,-0.113
2,CCCGTACG,-0.149
3,CCTTCAAC,0.0905
4,CTTTAAAG,-0.00848
5,CATGTCAG,-0.123
6,CTGTCACC,-0.108
7,GCTTGGCC,-0.166
8,CTAGAATC,-0.0329
9,TCAGCCCA,-0.106
10,CATCACTC,-0.153
11,AGTGAGCC,-0.0126
12,GATCAAAC,0.031
13,AGTTGACG,0.198
14,GAAGCCTA,-0.0617
15,CCCTCAGA,-0.154
16,ATGCCTCC,-0.0944
17,GGGAGGAC,-0.199
18,ACCGAAGT,0.0663
19,CGGACACA,-0.138
